Experimental findings from article doi:10.1101/2021.06.08.447515 are described below.

Protein sequences, listed by entry. Tags and fused reporters are not part of them. Lines headed by an entry give the natural chain unless they say otherwise; changes in a name come on top.
UniProt Q27335: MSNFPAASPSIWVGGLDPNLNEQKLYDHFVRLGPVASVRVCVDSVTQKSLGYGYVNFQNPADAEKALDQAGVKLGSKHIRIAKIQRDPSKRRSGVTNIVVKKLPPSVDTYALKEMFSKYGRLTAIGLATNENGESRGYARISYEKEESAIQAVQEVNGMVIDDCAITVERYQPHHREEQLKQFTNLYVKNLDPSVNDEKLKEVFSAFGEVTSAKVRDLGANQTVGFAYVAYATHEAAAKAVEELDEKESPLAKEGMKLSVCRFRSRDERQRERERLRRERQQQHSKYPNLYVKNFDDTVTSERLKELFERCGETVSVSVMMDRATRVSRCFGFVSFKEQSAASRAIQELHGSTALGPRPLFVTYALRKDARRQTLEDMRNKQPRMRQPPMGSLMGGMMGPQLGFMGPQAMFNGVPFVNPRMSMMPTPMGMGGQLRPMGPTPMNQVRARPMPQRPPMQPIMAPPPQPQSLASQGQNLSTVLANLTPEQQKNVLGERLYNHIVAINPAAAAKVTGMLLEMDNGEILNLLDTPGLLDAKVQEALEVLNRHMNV

Where two headings read alike, the source gives them in different places. These are yes or no findings as the source states them, for the method shown. In cells and extracts the contact can be indirect. Here binding means that the protein was enriched with, or labelled near, the bait; the list need not be complete. Where a sequence is shown, tags or fusion partners need not be part of it.

Experiment [1] has as its target T1, recombinant canonical H2B (His-tag) (T. cruzi (CL Brener strain)) (UniProt B5U6T3).
T1 sequence: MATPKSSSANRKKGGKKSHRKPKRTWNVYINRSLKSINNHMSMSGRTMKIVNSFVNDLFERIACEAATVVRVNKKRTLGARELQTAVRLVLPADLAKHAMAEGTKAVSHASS
In words: affinity purification with mass spectrometry.

Experiment [2] deals with T1, recombinant canonical H2B (His-tag) (T. cruzi (CL Brener strain)). Nature of the experiment: affinity purification with mass spectrometry. The source holds these as a separate data set.

Consider double RNA binding domain protein 3, for which the binding result in experiment [1] and in experiment [2] was “binds” in each case. As for “high mobility group protein TDP1 (T. cruzi (endogenous in TCTs))”, the binding entry in experiment [2] is reported as “binds”.

For the substance “lupus La protein homolog (T. cruzi (endogenous in TCTs))”, the binding result in experiment [2] was “binds”.

As to “polyadenylate-binding protein (from UniProt Q27335)”, the binding result in experiment [1] and in experiment [2] was “binds” each time.

“tousled-like kinase II (T. cruzi (endogenous in TCTs))”: the binding entry in experiment [2] was “binds”.
